According to PubChem BioAssay AID2551 (National Center for Advancing Translational Sciences (NCATS), 2010):
Hit rate of the full screen: of about 310,000 compounds, about 17,000 (5.5%) were called active. This list was built around the results that the source calls inconclusive (neither active nor inactive); the mix of calls is not that of the screen. The call rests on the fitted dose curve; in most records, active means well fitted inhibition curve with a large enough effect; inconclusive means small, poorly fitted or top-dose-only effect, or effect the other way; inactive means no such curve, though single readings can be large or run the other way. Where the call is inconclusive, the potency comes from a doubtful curve fit.

By UniProt entry, the sequences of proteins in these tests, tags left out. Where a name states a change or a piece, a line headed by the entry shows the natural chain unless it says otherwise.
UniProt P51450: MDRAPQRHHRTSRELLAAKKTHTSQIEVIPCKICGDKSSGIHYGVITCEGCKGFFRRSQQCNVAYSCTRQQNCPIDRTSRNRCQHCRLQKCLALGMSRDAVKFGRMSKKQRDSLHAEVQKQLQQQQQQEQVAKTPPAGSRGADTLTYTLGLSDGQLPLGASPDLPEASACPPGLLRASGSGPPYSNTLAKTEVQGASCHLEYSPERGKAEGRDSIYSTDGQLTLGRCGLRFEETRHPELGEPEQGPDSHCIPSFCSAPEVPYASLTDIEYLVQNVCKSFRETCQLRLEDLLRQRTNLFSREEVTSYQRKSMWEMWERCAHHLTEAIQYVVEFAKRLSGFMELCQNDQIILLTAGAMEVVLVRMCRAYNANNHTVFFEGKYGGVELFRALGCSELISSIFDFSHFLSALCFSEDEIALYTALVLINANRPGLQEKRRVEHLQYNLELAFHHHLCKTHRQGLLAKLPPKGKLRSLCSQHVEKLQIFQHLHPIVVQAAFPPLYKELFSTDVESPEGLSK

molecular target: Nuclear receptor ROR-gamma (Mus musculus) (UniProt P51450); assay: qHTS for inhibitors of ROR gamma transcriptional activity; settings: Drosophila S2 Gal4-RORgamma UAS-luciferase reporter, 20 h; series mostly up to 53.6 µM; further: nearly all actives have a fitted effect of over 60% in size
Outline: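 Stably transfected Drosophila Schneider cells are the test system, with ROR gamma fused to Gal4 and luciferase under UAS control; luminescence is read after 20 hr of 700 uM copper sulfate induction at ambient temperature.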
Potency means the concentration at half of the fitted maximal effect.

Row | Compound | Potency
1 | Cc1ccc(NC(=O)CSc2nc3ccccc3c(=O)n2CCCN2CCCCC2)cc1Cl | inconclusive: 35.5 µM [inhibitor, single point]
2 | COc1ccc(-n2c(=S)[nH]c3sc(-c4ccccc4)cc3c2=O)c(OC)c1 | active: 3.55 µM
3 | CC(C)(C)Nc1oc(-c2ccccc2)nc1-c1ccccc1F | inactive
4 | Cc1ccc(C)c(C2=NNC(=NCc3ccccc3)SC2)c1 | active: 7.94 µM
5 | COc1ccc(S(=O)(=O)Cc2ccc(C(=O)O)o2)cc1 | inactive
6 | O=C(c1cc(F)c(F)cc1Cl)N1CCCc2ccccc21 | inactive
7 | O=C1Nc2cc(C(=O)NCCCN3CCOCC3)ccc2S/C1=C/c1ccccc1F | inactive
8 | COCCn1c(SCC(=O)N2CCCCC2)nc2ccccc2c1=O | inconclusive: 0.112 µM [activator, full curve, poor fit]
9 | CC(C)COc1ccc(C(=O)NC(=S)Nc2ccc(CN3CCOCC3)cc2)cc1 | inconclusive: 4.47 µM [inhibitor, full curve]
10 | O=C1NC(=S)/C(=C\c2ccc(-c3ccccc3Cl)o2)S1 | inconclusive: 25.1 µM [inhibitor, single point]
11 | COc1ccccc1C(=O)N1c2ccccc2Sc2ccccc21 | inconclusive: 12.6 µM [activator, single point]
12 | Cn1c(Cn2c(=O)sc3ccccc32)nnc1SCc1ccccc1 | inactive
13 | Cc1ccc(-c2csc(N3CCN(c4cc5c(cc4Cl)nc(C)n5CCN4CCCCC4)CC3)n2)cc1 | active: 11.2 µM
14 | CC1(C)Cc2c(C#N)c(N)sc(=S)c2CS1 | inconclusive: 11.2 µM [inhibitor, single point]
15 | CC[C@@H]1Cc2cc(O)ccc2C2=C1c1ccc(O)cc1C[C@H]2CC | inconclusive: 7.94 µM [inhibitor, partial curve]
16 | O=C(C[n+]1cc(Br)cc2ccccc21)c1ccc(Cl)cc1 | inconclusive: 15.8 µM [activator, partial curve]
17 | Cc1cc(C)c2cc(CN(Cc3nnnn3Cc3ccc(F)cc3)C3CCCC3)c(=O)[nH]c2c1 | inconclusive: 35.5 µM [inhibitor, single point]
18 | O=C(CSc1nncs1)Nc1nnc(-c2ccccc2)o1 | active: 11.2 µM
19 | C=CCn1c(C)cc(C(=O)CN2NS(=O)(=O)c3ccccc3C2=O)c1C | inconclusive: 11.2 µM [inhibitor, single point]
20 | FC(F)(F)c1ccccc1/C=N/n1c(C2CCCCC2)n[nH]c1=S | active: 7.94 µM
21 | COc1cccc(-c2nnc(NC(=O)C(C)C)o2)c1 | inconclusive: 8.91 µM [inhibitor, partial curve, poor fit]

Look-ups from the entries so far:
O=C(C[n+]1cc(Br)cc2ccccc21)c1ccc(Cl)cc1 | Potency: inconclusive: 15.8 µM [activator, partial curve]
Cc1ccc(C)c(C2=NNC(=NCc3ccccc3)SC2)c1 | Potency: active: 7.94 µM
